This assay deals with Telomerase Associated Protein 1 (human (endogenous in patient-derived GSCs)) (UniProt Q99973). Nature of the assay: affinity purification with mass spectrometry; co-immunoprecipitation with TEP1 followed by mass spectrometry of TEP1-bound proteins (Figure 4g).

No constants are given. Whether binding was seen depends on the method and setting. Binding seen in cells or lysates may run through a third protein. A yes stands for co-enrichment or nearness to the bait. Other partners may have been found.

As for “Kelch Like ECH Associated Protein 1 (from UniProt Q14145 1-624)”, the binding entry was “binds”.

Values taken from article PMC12207318.
